Assay [1] deals with protein-kinase-C-related kinase 1 (PRK1/PKN1) (human (endogenous in PC-3M-luc2)) (UniProt Q16512). In words: co-sedimentation; whole cell lysate on a 40-10 % sucrose gradient (50 mM Tris, 100 mM NaCl), 185.000 g for 16 hours, 17 fractions immunoblotted. A general note: Immunoblotting shows a protein as a band on a membrane.
Assay [2] has the same target. In words: co-IP; co-immunoprecipitation of endogenous PRK1 and SPAG9 from PC-3M-luc2 cells, Western blot.

These are yes or no findings as the source states them, for the method shown. Binding seen in cells or lysates may run through a third protein. Some results given as binding are weak or reduced against the parent protein; the word gives no strength.

B1: sperm-associated antigen 9 (SPAG9/JIP4) (protein, UniProt O60271-1 1-1321)
chain: MELEDGVVYQEEPGGSGAVMSERVSGLAGSIYREFERLIGRYDEEVVKELMPLVVAVLENLDSVFAQDQEHQVELELLRDDNEQLITQYEREKALRKHAEEKFIEFEDSQEQEKKDLQTRVESLESQTRQLELKAKNYADQISRLEEREAELKKEYNALHQRHTEMIHNYMEHLERTKLHQLSGSDQLESTAHSRIRKERPISLGIFPLPAGDGLLTPDAQKGGETPGSEQWKFQELSQPRSHTSLKVSNSPEPQKAVEQEDELSDVSQGGSKATTPASTANSDVATIPTDTPLKEENEGFVKVTDAPNKSEISKHIEVQVAQETRNVSTGSAENEEKSEVQAIIESTPELDMDKDLSGYKGSSTPTKGIENKAFDRNTESLFEELSSAGSGLIGDVDEGADLLGMGREVENLILENTQLLETKNALNIVKNDLIAKVDELTCEKDVLQGELEAVKQAKLKLEEKNRELEEELRKARAEAEDARQKAKDDDDSDIPTAQRKRFTRVEMARVLMERNQYKERLMELQEAVRWTEMIRASRENPAMQEKKRSSIWQFFSRLFSSSSNTTKKPEPPVNLKYNAPTSHVTPSVKKRSSTLSQLPGDKSKAFDFLSEETEASLASRREQKREQYRQVKAHVQKEDGRVQAFGWSLPQKYKQVTNGQGENKMKNLPVPVYLRPLDEKDTSMKLWCAVGVNLSGGKTRDGGSVVGASVFYKDVAGLDTEGSKQRSASQSSLDKLDQELKEQQKELKNQEELSSLVWICTSTHSATKVLIIDAVQPGNILDSFTVCNSHVLCIASVPGARETDYPAGEDLSESGQVDKASLCGSMTSNSSAETDSLLGGITVVGCSAEGVTGAATSPSTNGASPVMDKPPEMEAENSEVDENVPTAEEATEATEGNAGSAEDTVDISQTGVYTEHVFTDPLGVQIPEDLSPVYQSSNDSDAYKDQISVLPNEQDLVREEAQKMSSLLPTMWLGAQNGCLYVHSSVAQWRKCLHSIKLKDSILSIVHVKGIVLVALADGTLAIFHRGVDGQWDLSNYHLLDLGRPHHSIRCMTVVHDKVWCGYRNKIYVVQPKAMKIEKSFDAHPRKESQVRQLAWVGDGVWVSIRLDSTLRLYHAHTYQHLQDVDIEPYVSKMLGTGKLGFSFVRITALMVSCNRLWVGTGNGVIISIPLTETNKTSGVPGNRPGSVIRVYGDENSDKVTPGTFIPYCSMAHAQLCFHGHRDAVKFFVAVPGQVISPQSSSSGTDLTGDKAGPSAQEPGSQTPLKSMLVISGGEGYIDFRMGDEGGESELLGEDLPLEPSVTKAERSHLIVWQVMYGNE
Take B1: the binding result in assay [1] and in assay [2] was “binds” in each case.

Values taken from publication PMC4350344.
